The values that follow come from PMC8828901.

For at least one entry, the source does not settle the construct or the ends of the probe. For part of these data: Weaker means in comparison with the reference protein, sequence or condition of that experiment.

Common to all, as to test: EMSA
Background: In EMSA bound probe runs differently from free probe, usually more slowly.

One data set has as its system Sox9 (TNT-Sox9). The following applies: 40 mM Hepes pH 7.9, 75 mM KCl, 0.2 mM EDTA, 0.5 mM DTT, 150 ng/ul poly(dI-dC), 5% Ficoll, room temperature, 30 min, 7 ug TNT protein, protein translated in vitro, label: 32P.
The subject of a further data set is Pax8 (TNT-Pax8). The conditions noted are these: specific; 40 mM Hepes pH 7.9, 75 mM KCl, 0.2 mM EDTA, 0.5 mM DTT, 150 ng/ul poly(dI-dC), 5% Ficoll, room temperature, 30 min; 7 ug TNT protein; protein translated in vitro; label: 32P.
The next data set deals with Nkx2.1 (TNT-Nkx2.1). The following applies: weak, non-specific: unrelated oligo competes as well as related; 40 mM Hepes pH 7.9, 75 mM KCl, 0.2 mM EDTA, 0.5 mM DTT, 150 ng/ul poly(dI-dC), 5% Ficoll, room temperature, 30 min; 7 ug TNT protein; protein translated in vitro; label: 32P.
In another data set the test system is Foxe1 (TNT-Foxe1). The following applies: specific; 40 mM Hepes pH 7.9, 75 mM KCl, 0.2 mM EDTA, 0.5 mM DTT, 150 ng/ul poly(dI-dC), 5% Ficoll, room temperature, 30 min; 7 ug TNT protein; protein translated in vitro; label: 32P.

As to “AGGCTTCTATTGTCTTGTTGCTTT (double strand) [Nkx2.1 promoter Sox9 site]”, the binding result in the data set with Sox9 (TNT-Sox9) (weaker, non-specific) is on record as “binds more weakly”. As for “GGCCCTCAGAACAAAGTTCTCACT (double strand) [Pax8 promoter Sox9 site]”, in the data set on Sox9 (TNT-Sox9) (strong, specific), the binding result is reported as “binds”. The same measure, in the same setting: the same measure for “TCATGACCTTTGTATTAATC (double strand) [Foxe1 promoter Sox9 site]”: “binds”. On to “TTTCGGTCCAGGAACTTTTCTTTG (double strand) [Sox9 promoter Pax8 site]”, for which the binding result in the data set with Pax8 (TNT-Pax8) is “binds”. Consider “GTCTGGAAACTTCAGTGGGAGCGA (double strand) [Sox9 promoter Nkx2.1 site -15/-7]”, for which the binding result with Nkx2.1 (TNT-Nkx2.1) is given as “binds more weakly”. For the sequence “TGAGTCACCCAAACATTTCTTCCA (double strand) [Sox9 promoter Foxe1 site]”, the binding result with Foxe1 (TNT-Foxe1) is listed as “binds”.
